Results reported in doi:10.1101/2024.09.04.610270.
These are yes or no findings as the source states them, for the method shown. For part of these data: Binding calls can cover weak binding; strength is not graded here. Each block holds one molecule with its values, some of them ahead of it.

Columns and labels:
Assay in all cases: two-hybrid
[1] = target: T1, arginine/serine-rich zinc knuckle-containing protein 32 (RS2Z32), native full-length, yeast two-hybrid bait (Arabidopsis thaliana) (UniProt Q9FYB7)
T1 sequence: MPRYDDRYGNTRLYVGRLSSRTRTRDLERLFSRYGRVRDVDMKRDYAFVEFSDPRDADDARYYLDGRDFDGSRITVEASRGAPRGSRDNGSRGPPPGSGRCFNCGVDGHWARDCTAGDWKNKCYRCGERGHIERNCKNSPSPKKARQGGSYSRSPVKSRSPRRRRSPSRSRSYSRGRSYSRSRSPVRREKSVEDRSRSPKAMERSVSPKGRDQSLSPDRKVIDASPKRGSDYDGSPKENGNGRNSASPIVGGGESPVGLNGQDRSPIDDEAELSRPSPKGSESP

[2] = target: T2, arginine/serine-rich zinc knuckle-containing protein 33 (RS2Z33), native full-length, yeast two-hybrid bait (Arabidopsis thaliana) (UniProt Q8VYA5)
T2 sequence: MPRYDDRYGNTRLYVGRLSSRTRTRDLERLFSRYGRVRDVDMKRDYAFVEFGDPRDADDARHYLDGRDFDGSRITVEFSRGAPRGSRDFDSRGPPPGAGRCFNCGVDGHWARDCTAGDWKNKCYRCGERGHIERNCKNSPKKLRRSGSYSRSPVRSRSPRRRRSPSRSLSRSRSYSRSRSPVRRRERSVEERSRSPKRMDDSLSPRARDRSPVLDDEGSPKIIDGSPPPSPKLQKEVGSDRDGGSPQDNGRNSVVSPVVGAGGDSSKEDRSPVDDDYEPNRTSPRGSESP

[3] = target: RS2Z33mutRS (Arabidopsis thaliana) (UniProt Q8VYA5)
[4] = target: RS2Z33mutRRM+ZnKs (Arabidopsis thaliana) (UniProt Q8VYA5)
[5] = target: RS2Z32mutRS (Arabidopsis thaliana) (UniProt Q9FYB7)
[6] = target: RS2Z32mutRRM+ZnKs (Arabidopsis thaliana) (UniProt Q9FYB7)
[7] = target: RS2Z33mutZnKs (Arabidopsis thaliana) (UniProt Q8VYA5)
[8] = target: RS2Z32mutZnKs (Arabidopsis thaliana) (UniProt Q9FYB7)
[9] = target: RS2Z33mutRRM+RS (Arabidopsis thaliana) (UniProt Q8VYA5)
[10] = target: RS2Z32mutSP (Arabidopsis thaliana) (UniProt Q9FYB7)
[11] = target: RS2Z33mutSP (Arabidopsis thaliana) (UniProt Q8VYA5)

Molecule: SR45mutRS1+RS2, yeast two-hybrid (from UniProt Q9SEE9-1)
binding [1]: no binding | binding [2]: no binding

Molecule: ACINUS (Arabidopsis thaliana)
binding [1]: no binding | binding [2]: no binding

Molecule: PININ (Arabidopsis thaliana)
binding [1]: no binding | binding [2]: no binding

Molecule: SRPK3b (Arabidopsis thaliana) (enzyme)
binding [1]: binds | binding [2]: binds

B1: SR45.1 (protein, UniProt Q9SEE9-1 1-414)
chain: MAKPSRGRRSPSVSGSSSRSSSRSRSGSSPSRSISRSRSRSRSLSSSSSPSRSVSSGSRSPPRRGKSPAGPARRGRSPPPPPSKGASSPSKKAVQESLVLHVDSLSRNVNEAHLKEIFGNFGEVIHVEIAMDRAVNLPRGHGYVEFKARADAEKAQLYMDGAQIDGKVVKATFTLPPRQKVSSPPKPVSAAPKRDAPKSDNAAADAEKDGGPRRPRETSPQRKTGLSPRRRSPLPRRGLSPRRRSPDSPHRRRPGSPIRRRGDTPPRRRPASPSRGRSPSSPPPRRYRSPPRGSPRRIRGSPVRRRSPLPLRRRSPPPRRLRSPPRRSPIRRRSRSPIRRPGRSRSSSISPRKGRGPAGRRGRSSSYSSSPSPRRIPRKISRSRSPKRPLRGKRSSSNSSSSSSPPPPPPPRKT
binding [3]: no binding | binding [4]: binds | binding [5]: no binding | binding [6]: binds

B5: MOS14 (protein, UniProt Q8GUL2 1-958)
chain: MEHQNAVKEALNALYHHPDDTVRVHADRWLQNFQGTLDAWQVADNLLHDSSSNLETLIFCSQTLRSKVQRDFEELPPGAFQKLRQSLTTLLKKFHKGPPKVRTQISIAVAALAVHVPAADWGDGGIISWLRDEMHMHPEYVPGFLELLTVLPEETFNYKIAARPDRRRQFEKELTSQMEAALSILSACLKISELKEQVLEAFASWLRLRHGIPGTVLACHPLVHAALSSLNCDPLSEASVNVISELIHHTASPSSGGISAQTPLIQVIVPQILSLQAHLRDSSKDEEDVKAIGRLFADVGDSYVELIATGSDEPMVIVHALLEVTAHPEFDIASMTFNFWHSLQLMLTKRESYSSLGSEASIEVERNRRLHIFQPAYQSLVSLVGFRVQYPEDYQGLSYEDLKEFKQTRYAVADVLIDAALILGGDTTLKILYMKLLEANAQTGNNFQDWRPAEAILFCIWAISNYVSVVEAEVMPQVMALLQNLPQQAQLLQTACLLVGAYSKWLNAAPASVSILPSIIRILMSGMGTSEDCAAAAALAFRHTCDDCRKNLCGYFEDLFNIYCMAINGGGGYKVSAEDSLNLVEALGMVVTELPLDQAKGALEKLCFSAASPLEEAAKEDLEKKHARELTVHIDRFAFLFRYVNHPEAVAAEINKHWAIFRVIFDARPWDMRTMESLCRACKYAVRTSGRYIIDTIGEMLEKIQFHYQQHHQPCFLYLSSEVIKIFGSDPSCAVYLKNLIETLFAHTTCLMTSIKEVTARPDIADDCFLLASRCLRYCPHLFIPSPIFPALVNCAMIGITVQHREACHSILTFLTDIFDLEKSVNEEQFVRIRDNIIIPRGATITRILIASLAGALPSSRLDTVTYSLLALTRTYRLQAVSWAKESVSLIPRTALTETESTKFLQALSDIAYGADVNSLIGQVEELSDVCRRNRTVQELVQAALKPLELNLVTAPVS
binding [3]: no binding | binding [5]: no binding

More lines, now with the values ahead:

binding [1]: binds | binding [2]: binds
Molecule: SRPK4 (Arabidopsis thaliana) (enzyme)

binding [1]: no binding | binding [2]: no binding
Molecule: SRPK1 (Arabidopsis thaliana) (enzyme)

binding [1]: no binding | binding [2]: no binding
Molecule: SRPK2 (Arabidopsis thaliana) (enzyme)

binding [1]: binds | binding [2]: binds
Molecule: SRPK3a (Arabidopsis thaliana) (enzyme)

binding [3]: no binding | binding [7]: binds | binding [5]: no binding | binding [8]: binds
B2: SCL30 (protein, UniProt Q8L3X8 1-262)
chain: MRRYSPPYYSPPRRGYGGRGRSPPPPPPRRGYGGGGGGGGRRGSSHGSLLVRNIPLDCRPEELREPFERFGPVRDVYIPRDYYSGQPRGFAFVEFVDAYDAGEAQRSMNRRSFAGREITVVVASESRKRPEEMRVKTRTRSREPSGSRDRSHGRSRSRSISRSRSPRRPSDSRSRYRSRSYSPAPRRRGGPPRGEEDENYSRRSYSPGYEGAAAAAPDRDRNGDNEIREKPGYEAEDRRRGGRAVSRSPSGSRSRSVEVSPR

binding [3]: no binding | binding [4]: no binding | binding [5]: no binding | binding [6]: no binding
B3: SR45.2 (protein, UniProt Q9SEE9-2 1-407)
chain: MAKPSRGRRSPSVSGSSSRSSSRSRSGSSPSRSISRSRSRSRSLSSSSSPSRSVSSGSRSPPRRGKSPAGPARRGRSPPPPPSKGASSPSKKAVQESLVLHVDSLSRNVNEAHLKEIFGNFGEVIHVEIAMDRAVNLPRGHGYVEFKARADAEKAQLYMDGAQIDGKVVKATFTLPPRQKVSSPPKPVSAAPKRDAPKSDNAAADAEKDGGPRRPRERLSPRRRSPLPRRGLSPRRRSPDSPHRRRPGSPIRRRGDTPPRRRPASPSRGRSPSSPPPRRYRSPPRGSPRRIRGSPVRRRSPLPLRRRSPPPRRLRSPPRRSPIRRRSRSPIRRPGRSRSSSISPRKGRGPAGRRGRSSSYSSSPSPRRIPRKISRSRSPKRPLRGKRSSSNSSSSSSPPPPPPPRKT

binding [3]: binds | binding [5]: no binding | binding [9]: no binding
B4: SR34 (protein, UniProt O22315 1-303)
chain: MSSRSSRTVYVGNLPGDIREREVEDLFSKYGPVVQIDLKVPPRPPGYAFVEFDDARDAEDAIHGRDGYDFDGHRLRVELAHGGRRSSDDTRGSFNGGGRGGGRGRGDGGSRGPSRRSEFRVLVTGLPSSASWQDLKDHMRKGGDVCFSQVYRDARGTTGVVDYTCYEDMKYALKKLDDTEFRNAFSNGYVRVREYDSRKDSRSPSRGRSYSKSRSRSRGRSVSRSRSRSRSRSRSPKAKSSRRSPAKSTSRSPGPRSKSRSPSPRRSRSRSRSPLPSVQKEGSKSPSKPSPAKSPIHTRSPSR

binding [10]: binds | binding [3]: no binding | binding [7]: binds | binding [11]: binds | binding [5]: no binding | binding [8]: binds
B6: Cyp59 (protein, UniProt Q6Q151 1-506)
chain: MSVLIVTSLGDIVIDLHSDKCPLTCKNFLKLCKIKYYNGCLFHTVQKDFTAQTGDPTGTGAGGDSIYKFLYGEQARFYKDEIHLDLKHSKTGTVAMASGGENLNASQFYFTLRDDLDYLDGKHTVFGQIAEGFDTLTRINEAYVDPKNRPYKNIRIKHTHILDDPFDDPPQLAEMMPDASPEGKPKEEVKDDVRLEDDWVPMDEELGAQELEEVIREKAAHSSAVVLESIGDIPEAEVKPPDNVLFVCKLNPVTEDEDLHTIFSRFGTVVSADVIRDFKTGDSLCYAFIEFENKESCEQAYFKMDNALIDDRRIHVDFSQSVSKLWSQFRQKDSQKGKGNGCFKCGSTDHIAKDCVGGPSSKFIVKDQNRQHGGGEGYEMVFEGDVHETPKHNSHERERSEKIQRRSPHGNGEGKRQHRDERDDGRRQHDREDARELERKHRERKERESREDEDRRRRRRREESRDKESRRERDEDDHRSHRDYKERRRERDDRHGREARHERRDR
